Experimental findings from patent publication US20140066373A1, “TREATING DIABETES WITH OXYTOCIN OR OXYTOCIN ANALOGS” (Albert Einstein College of Medicine of Yeshiva University, priority 2012, published 2014) are described below.

Protein sequences, listed by entry. Tags and fused reporters are not part of them. Lines headed by an entry give the natural chain unless they say otherwise; changes in a name come on top.
UniProt P01178: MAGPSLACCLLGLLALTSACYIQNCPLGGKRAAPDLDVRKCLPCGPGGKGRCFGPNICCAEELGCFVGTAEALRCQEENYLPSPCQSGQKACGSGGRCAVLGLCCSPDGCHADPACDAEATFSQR

Data set [1] relates to STZ-induced diabetic mice. The experiment in a line: 7-day intra-third ventricle pretreatment in STZ-induced diabetic mice: GTT, fasting blood insulin, GSIS, body weight. The data set is classed as in vivo, C57BL/6 mice. From the text: (§1) Animals. C57BL/6 mice were purchased from Jackson Laboratory. All mice were housed in standard conditions. High-fat diet was purchased from Research Diets, Inc. All animal procedures were approved by the Institutional Animal Care and Use Committee. Mice were subjected to body weight measurement on a daily basis surrounding surgical procedures or drug treatments to monitor physical recovery or the effect of drug treatment on body weight.
(§2) Third ventricle cannulation and drug treatment. Third ventricle cannulation procedure was as previously described (39). An ultra-precise small animal stereotactic apparatus (Kopf Instruments) was used to perform implantation of a guide cannula into the third ventricle of anesthetized mice, at the coordinates of 1.8 mm posterior to the bregma and 5.0 mm below the skull surface. Mice were allowed 1-2 weeks for postsurgical recovery. For drug treatment. Oxytocin (Bachem Americas, Inc.), [Ser4, Ile8]-oxytocin (Bachem Americas, Inc.), [Asu1,6]-oxytocin (American Peptide Company, Inc.) or control vehicle were injected via pre-implanted guide cannula into the third ventricle of individually housed mice.
Blood tests. For glucose tolerance test (GTT), overnight-fasted mice received one-time intraperitoneal injection of glucose (2 g/kg body weight), and blood glucose levels were measured using OneTouch Ultra2 (LifeScan, Inc.). Fasting blood insulin levels were measured with Ultra Sensitive Mouse Insulin ELISA kits (Crystal Chem). Glucose-stimulated insulin secretion (GSIS) test was performed as previously described (19). Overnight-fasted mice received one-time intraperitoneal injection of glucose (3 g/kg body weight), and blood insulin levels were measured at 3 min. and 20 min. after the injection. […]
Finally [Asu1,6]-oxytocin was tested for potential […] protection and anti-diabetic effects using an STZ-induced diabetic mouse model. […] Following [Asu1,6]-oxytocin and STZ treatments, mice were evaluated for glucose tolerance test, fasting blood insulin levels, and glucose-stimulated insulin secretion.

Data set [2] deals with HFD-induced prediabetic mouse model. The experiment in a line: Acute intra-third ventricle therapy in HFD-induced prediabetic (dietary obese) mice: GTT, fasting blood insulin, body weight. The data set is classed as in vivo, C57BL/6 mice. The note with it: 2-month HFD mice, overnight period under fasting, 2 μg per injection twice.
From the text: as §1, §2
Blood tests. For glucose tolerance test (GTT), overnight-fasted mice received one-time intraperitoneal injection of glucose (2 g/kg body weight), and blood glucose levels were measured using OneTouch Ultra2 (LifeScan, Inc.). Fasting blood insulin levels were measured with Ultra Sensitive Mouse Insulin ELISA kits (Crystal Chem). Glucose-stimulated insulin secretion (GSIS) test was performed as previously described (19). Overnight-fasted mice received one-time intraperitoneal injection of glucose (3 g/kg body weight), and blood insulin levels were measured at 3 min. and 20 min. after the injection.
Acute oxytocin therapy reverses insulin resistance in dietary obese mice independently of body weight. […]

In the case of [Asu1,6]-oxytocin, the body weight changes entry was “not associated with significant changes in body weight” in data set [1] and “not accompanied by statistically significant body weight changes” in data set [2].
`CC[C@H](C)[C@@H]1NC(=O)[C@H](Cc2ccc(O)cc2)NC(=O)[C@@H](N)CSSC[C@@H](C(=O)N2CCC[C@H]2C(=O)N[C@@H](CC(C)C)C(=O)NCC(N)=O)NC(=O)[C@H](CC(N)=O)NC(=O)[C@H](CCC(N)=O)NC1=O` [oxytocin, Cys-Tyr-Ile-Gln-Asn-Cys-Pro-Leu-Gly-NH2]: the values for the body weight changes result in data set [1] and in data set [2] were “not associated with significant changes in body weight” and “did not induce body weight changes”, respectively.
Consider “[Ser4, Ile8]-oxytocin (CYISNCPIG; Oxytocin; UniProt P01178 20-28, looked up, variant Q4S L8I) [oxytocin analog: glutamine at position 4 substituted with serine, leucine at position 8 with isoleucine; Bachem Americas, Inc]”, for which the body weight changes entry in data set [1] was “did not involve significant body weight changes”; in data set [2], “did not incur body weight changes”.
